From patent publication US20120195909A1 (BIONOVION HOLDING B V, published 2012)
No constants are given. Whether binding was seen depends on the method and setting. Some binding calls cover weakened binding; strength is not graded here.

Sequences of proteins named here, by UniProt entry; tags and fusion partners are left off. Residues count along the entry.
UniProt O75888, residues 110-250: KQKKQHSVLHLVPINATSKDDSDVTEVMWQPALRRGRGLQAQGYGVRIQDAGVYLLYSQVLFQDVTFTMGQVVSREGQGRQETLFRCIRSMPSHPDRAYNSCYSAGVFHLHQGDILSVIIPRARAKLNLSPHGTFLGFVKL

What was measured:
[1] = target: FLAG-hAPRIL (secreted form, supernatant of 293T cells transfected with pCR3-hAPRIL) (human) (UniProt O75888); experiment: ELISA, FLAG-hAPRIL captured by coated anti-FLAG antibody, hybridoma supernatant titrated neat to 1:128
[2] = target: FLAG-hAPRIL (secreted form, supernatant of 293T cells transfected with pCR3-hAPRIL) (human) (UniProt O75888); experiment: ELISA, purified antibody, FLAG-hAPRIL captured by anti-FLAG antibody
[3] = target: FLAG-hAPRIL (secreted form, supernatant of 293T cells transfected with pCR3-hAPRIL) (human) (UniProt O75888); experiment: blocking ELISA, FLAG-APRIL supernatant pre-mixed with titrated antibody, binding to BCMA-Fc coated at 1 µg/ml detected with anti-Flag-HRP [left graph]
[4] = target: FLAG-hAPRIL (secreted form, supernatant of 293T cells transfected with pCR3-hAPRIL) (human) (UniProt O75888); experiment: blocking ELISA, FLAG-APRIL supernatant pre-mixed with titrated antibody, binding to BCMA-Fc coated at 1 µg/ml detected with anti-Flag-HRP [right graph]
[5] = target: FLAG-hAPRIL (secreted form, supernatant of 293T cells transfected with pCR3-hAPRIL) (human) (UniProt O75888); experiment: blocking ELISA, FLAG-APRIL supernatant pre-mixed with titrated antibody, binding to coated TACI-Fc (sheet: coated at 1 µg/ml) detected with anti-Flag-HRP [right graph]
[6] = target: FLAG-hAPRIL (secreted form, supernatant of 293T cells transfected with pCR3-hAPRIL) (human) (UniProt O75888); experiment: blocking ELISA, FLAG-APRIL supernatant pre-mixed with titrated antibody, binding to coated TACI-Fc (sheet: coated at 1 µg/ml) detected with anti-Flag-HRP [left graph]
[7] = target: FLAG-hAPRIL (secreted form, supernatant of 293T cells transfected with pCR3-hAPRIL) (human) (UniProt O75888); experiment: blocking ELISA, FLAG-hAPRIL pre-incubated with titrated antibody, binding to coated TACI-Fc detected with anti-FLAG
[8] = target: FLAG-hAPRIL (secreted form, supernatant of 293T cells transfected with pCR3-hAPRIL) (human) (UniProt O75888); experiment: blocking ELISA, FLAG-hAPRIL pre-incubated with hybridoma supernatant, binding to adsorbed BCMA-Fc detected with anti-FLAG
[9] = target: FLAG-hAPRIL (secreted form, supernatant of 293T cells transfected with pCR3-hAPRIL) (human) (UniProt O75888); experiment: ELISA, FLAG-hAPRIL captured by coated anti-FLAG antibody, purified antibody titrated
[10] = target: FLAG-hAPRIL (secreted form, supernatant of 293T cells transfected with pCR3-hAPRIL) (human) (UniProt O75888); experiment: blocking ELISA, FLAG-hAPRIL pre-incubated with titrated antibody, binding to coated BCMA-Fc detected with anti-FLAG
[11] = target: FLAG-hAPRIL (secreted form, supernatant of 293T cells transfected with pCR3-hAPRIL) (human) (UniProt O75888); experiment: ELISA, hybridoma supernatant, FLAG-hAPRIL captured by anti-FLAG antibody

Measured: binding

B1: hAPRIL.01A (antibody, IgG1, V domains shown)
VH: EVQLQQSGPELVKPGASVKMSCKASGYTFTSYVMHWVKQKPGQGLEWIGYINPYNDAPKYNEKFKGKATVTSDKSSGTAYMELSSLTSEDSAVYYCARGLGYALYYAMDYWGQGTSVTVSS
VL: DIVMTQSQKFKSTSVGDRVSVTCKASQNVGNNVAWYQQKAGQSPKALISSASNRDSGVPDRFTGSGSGTDFTLTISNVQSEDLADYFCQQYNIYPFTFGSGTELEIK
notes: Mouse antibody from a hybridoma, IgG1, kappa
binds: all assays above
